In PubChem BioAssay AID330 (DTP/NCI, 2004):
The list does not hold the whole screen: it gathers tests that were run many times, whatever their T/C, doses with no T/C, and many T/C values between a quarter and a half above the control. Other doses and runs of a compound stand elsewhere. T/C: endpoint of the treated group in % of that of the vehicle group. Some doses have a count of surviving animals in place of a T/C: the source files T/C as zero there, which appears to mark a toxic dose or a test without result, not a measured value. Some survivor counts are full or nearly so, which does not show that the dose was tolerated: the source hardly ever lists a survival T/C far under the control, and the zero likely stands for such cases as well. Survivors were counted at the toxicity check, usually on the fifth day, unless a day is given; later deaths do not show. Schedules are NCI's codes, taken here to give the interval after Q, in days (D) or hours (H), and the number of doses after X. For survival time, this PubChem deposit counts one and a half times the control or more as active, and values a quarter to a half above the control carry no call in these data; other NCI protocols may use other cut-offs. Some doses were run more than once; the values are given in rising order. Some T/C values are followed by the survivors on the day toxicity was checked, most often the fifth; without a count, all were alive then.

Tested on: P388 leukemia ip, CD2F1 mice, survival T/C
Experiment: NCI In Vivo Anticancer Drug Screen. Data for tumor model P388 Leukemia (intraperitoneal) in CD2F1 (CDF1) mice
Settings: T/C endpoint: median survival time, higher T/C = longer survival
[1] = dose: 12.5 mg/kg/injection, schedule: Q01DX009 (ip), vehicle: suspension in saline
[2] = dose: 200.0 mg/kg/injection, schedule: Q01DX005 (ip), vehicle: saline with Tween-80
[3] = dose: 100.0 mg/kg/injection, schedule: Q01DX009 (ip), vehicle: saline with Tween-80

`CCCCCCC(=O)OCCN1CCN(CC/C=C2\c3ccccc3Sc3ccc(C(F)(F)F)cc32)CC1` was tested, and the T/C [1] was 132 % of control, the survivor count [1] was 5 of 6 and the survivor count (dose: 25.0 mg/kg/injection, schedule: Q01DX009 (ip), vehicle: saline) was 6 of 6. The T/C (dose: 25.0 mg/kg/injection, schedule: Q01DX009 (ip), vehicle: suspension in saline) was 134 % of control.

In the case of `NC(N)=NC(N)=Nc1ccc(-c2ccc(N=C(N)N=C(N)N)cc2)cc1`, the T/C (dose: 12.5 mg/kg/injection, schedule: Q01DX009 (ip), vehicle: saline with Tween-80) is reported as 133 % of control and the survivor count (dose: 25.0 mg/kg/injection, schedule: Q01DX009 (ip), vehicle: saline with Tween-80) is reported as 4 of 6.

In the case of `CC1CC(OC(=O)CSC#N)CC(C)(C)C1` (stereo unspecified), the survivor count (dose: 100.0 mg/kg/injection, schedule: Q01DX005 (ip), vehicle: saline with Tween-80) is reported as 0 of 6 and the survivor count [2] is reported as 0 of 6.

For `OCC1OC(n2cnc3c(NO)nc(NO)nc32)C(O)C1O` (stereo unspecified), the T/C (dose: 9.0 mg/kg/injection, schedule: Q01DX009 (ip), vehicle: saline) was 126 % of control, the T/C (dose: 9.4 mg/kg/injection, schedule: Q01DX009 (ip), vehicle: saline) was 125 % of control and the T/C (dose: 23.7 mg/kg/injection, schedule: Q01DX009 (ip), vehicle: saline) was 140 % of control. The T/C (dose: 36.0 mg/kg/injection, schedule: Q01DX009 (ip), vehicle: saline) was 127 and 145 % of control.

For `CNC(=S)N/N=C/Cn1ccc(=O)[nH]c1=O`, the survivor count (dose: 200.0 mg/kg/injection, schedule: Q01DX005 (ip), vehicle: Klucel (hydroxypropylcellulose) (HPC)) was 3 of 6.

For `C=C1[C@@H](NC)CC[C@]23C[C@]24CC[C@]2(C)[C@@H]([C@H](C)NC)[C@H](O)C[C@@]2(C)[C@@H]4CC[C@@H]13`, the survivor count (dose: 200.0 mg/kg/injection, schedule: Q01DX001 (ip), vehicle: saline with Tween-80) was 3 of 6.

For `Cc1ccc(S(=O)(=O)Nc2cccc3c(NS(=O)(=O)c4ccc(C)cc4)cccc23)cc1`, the survivor count (dose: 400.0 mg/kg/injection, schedule: Q01DX009 (ip), vehicle: saline with Tween-80) was 6 of 6.

For `CC(C)C(C(=O)CCN(C)C)c1ccc(Cl)cc1` (stereo unspecified), the survivor count [2] was 1 of 5.

In the case of `Nc1cccc(S(=O)(=O)Nc2ncc(Cl)cn2)c1.[Ag]`, the survivor count (dose: 200.0 mg/kg/injection, schedule: Q01DX009 (ip), vehicle: saline) is reported as 0 of 6.

`CCCCCCCCOc1ccc(/C=C/C(C)=N/NC(N)=NC)cc1OC` was tested, and the survivor count (dose: 60.0 mg/kg/injection, schedule: Q01DX005 (ip), vehicle: saline with Tween-80) was 1 of 6, the survivor count (dose: 120.0 mg/kg/injection, schedule: Q01DX005 (ip), vehicle: saline with Tween-80) was 1 of 6 and the survivor count (dose: 240.0 mg/kg/injection, schedule: Q01DX005 (ip), vehicle: saline with Tween-80) was 0 of 6.

For `CCN(CC)CCCC(C)NCCCN` (stereo unspecified), the survivor count (dose: 400.0 mg/kg/injection, schedule: Q04DX003 (ip), vehicle: saline) was 1 of 6.

For `CC1OCN2CCCCC12` (stereo unspecified), the T/C (dose: 100.0 mg/kg/injection, schedule: Q01DX005 (ip), vehicle: saline) was 127 and 131 % of control and the T/C (dose: 200.0 mg/kg/injection, schedule: Q01DX005 (ip), vehicle: saline) was 133 and 139 % of control.

In the case of `CC(C)(C)NC=C(C#N)C#N`, the survivor count (dose: 50.0 mg/kg/injection, schedule: Q01DX009 (ip), vehicle: Klucel (hydroxypropylcellulose) (HPC)) is reported as 3 of 6, the survivor count (dose: 100.0 mg/kg/injection, schedule: Q01DX009 (ip), vehicle: Klucel (hydroxypropylcellulose) (HPC)) is reported as 2 of 6 and the survivor count [3] is reported as 0 of 6. For the same compound, the survivor count (dose: 200.0 mg/kg/injection, schedule: Q01DX009 (ip), vehicle: Klucel (hydroxypropylcellulose) (HPC)) was 0 of 6, the survivor count (dose: 200.0 mg/kg/injection, schedule: Q01DX009 (ip), vehicle: saline with Tween-80) was 0 of 6 and the survivor count (dose: 300.0 mg/kg/injection, schedule: Q01DX009 (ip), vehicle: Klucel (hydroxypropylcellulose) (HPC)) was 0 of 6.

For `CCCCC(=O)OCC(=O)[C@]1(O)Cc2c(O)c3c(c(O)c2[C@@H](OC2CC(NC(=O)C(F)(F)F)C(O)C(C)O2)C1)C(=O)c1c(OC)cccc1C3=O` (stereo partly specified), the T/C (dose: 1.4 mg/kg/injection, schedule: Q01DX009 (ip), vehicle: clinical formulation) was 138 % of control, the T/C (dose: 2.0 mg/kg/injection, schedule: Q04DX003 (ip), vehicle: saline with Tween-80) was 125 % of control and the T/C (dose: 2.33 mg/kg/injection, schedule: Q01DX009 (ip), vehicle: clinical formulation, evaluated on day 45) was 147 % of control. The T/C (dose: 2.33 mg/kg/injection, schedule: Q01DX009 (ip), vehicle: clinical formulation, evaluated on day 60) was 137 % of control, the T/C (dose: 3.89 mg/kg/injection, schedule: Q01DX009 (ip), vehicle: clinical formulation, evaluated on day 45) was 148 % of control and the T/C (dose: 3.89 mg/kg/injection, schedule: Q01DX009 (ip), vehicle: clinical formulation, evaluated on day 60) was 134 % of control. The T/C (dose: 6.48 mg/kg/injection, schedule: Q01DX009 (ip), vehicle: clinical formulation) was 142 % of control, the T/C (dose: 16.0 mg/kg/injection, schedule: Q04DX003 (ip), vehicle: saline with Tween-80) was 127 and 136 % of control and the T/C (dose: 18.75 mg/kg/injection, schedule: Q04DX003 (ip), vehicle: clinical formulation) was 138 % of control. The T/C (dose: 19.4 mg/kg/injection, schedule: Q04DX003 (ip), vehicle: clinical formulation) was 143 % of control, the T/C (dose: 21.6 mg/kg/injection, schedule: Q04DX003 (ip), vehicle: clinical formulation) was 133 % of control [6 of 7 alive] and the T/C (dose: 32.0 mg/kg/injection, schedule: Q04DX003 (ip), vehicle: saline with Tween-80) was 125, 133, 138 % of control. For the same compound, the T/C (dose: 37.5 mg/kg/injection, schedule: Q04DX003 (ip), vehicle: clinical formulation) was 146 % of control, the survivor count (dose: 40.0 mg/kg/injection, schedule: Q01DX004 (ip), vehicle: distilled water + Tween-80) was 10 of 10 and the survivor count (dose: 50.0 mg/kg/injection, schedule: Q01DX004 (ip), vehicle: distilled water + Tween-80) was 10 of 10. For the same compound, the survivor count (dose: 50.0 mg/kg/injection, schedule: Q01DX009 (ip), vehicle: clinical formulation) was 8 of 8, the survivor count (dose: 60.0 mg/kg/injection, schedule: Q01DX004 (ip), vehicle: distilled water + Tween-80) was 7 of 10 and the T/C (dose: 64.0 mg/kg/injection, schedule: Q04DX003 (ip), vehicle: saline with Tween-80) was 128 % of control. The T/C (dose: 75.0 mg/kg/injection, schedule: Q04DX003 (ip), vehicle: clinical formulation) was 132 % of control, the T/C (dose: 150.0 mg/kg/injection, schedule: Q04DX003 (iv), vehicle: saline with Tween-80) was 133 % of control and the survivor count (dose: 300.0 mg/kg/injection, schedule: Q04DX003 (ip), vehicle: saline with Tween-80) was 5 of 6. For the same compound, the T/C (dose: 300.0 mg/kg/injection, schedule: Q04DX003 (iv), vehicle: saline with Tween-80) was 130 % of control [5 of 6 alive], the survivor count (dose: 600.0 mg/kg/injection, schedule: Q04DX003 (ip), vehicle: saline with Tween-80) was 4 of 6 and the survivor count (dose: 2048.0 mg/kg/injection, schedule: Q04DX003 (ip), vehicle: saline with Tween-80) was 2 of 6 on day 9.

With `CC[C@@]1(O)C[C@H](OC2CC(N(C)C)C(OC3CC(O)C(O[C@@H]4O[C@@H](C)C(=O)C=C4N)C(C)O3)C(C)O2)c2c(cc3c(c2O)C(=O)c2c(O)ccc(O)c2C3=O)[C@H]1C(=O)OC` (stereo partly specified) the T/C (dose: 0.38 mg/kg/injection, schedule: Q01DX009 (ip), vehicle: saline) was 144 % of control [5 of 6 alive] and the survivor count (dose: 3.0 mg/kg/injection, schedule: Q01DX009 (ip), vehicle: saline with Tween-80) was 3 of 6.

With `COc1ccc2c(c1)CN(Cc1c(Cl)cccc1Cl)CO2` the survivor count (dose: 25.0 mg/kg/injection, schedule: Q01DX005 (ip), vehicle: Klucel (hydroxypropylcellulose) (HPC)) was 6 of 6.

In the case of `CCCc1c(Cl)nc(Cl)nc1Cl`, the T/C [3] is reported as 127 % of control, the T/C (dose: 100.0 mg/kg/injection, schedule: Q04DX003 (ip), vehicle: saline with Tween-80) is reported as 130 % of control and the survivor count (dose: 150.0 mg/kg/injection, schedule: Q01DX009 (ip), vehicle: saline with Tween-80) is reported as 3 of 6. For the same compound, the survivor count (dose: 200.0 mg/kg/injection, schedule: Q04DX003 (ip), vehicle: saline with Tween-80) was 3 of 6 and the survivor count (dose: 400.0 mg/kg/injection, schedule: Q04DX003 (ip), vehicle: saline with Tween-80) was 3 of 6.
